# Reference: patent publication US20240285643A1, “TREATING INFLUENZA USING SUBSTITUTED POLYCYCLIC PYRIDONE DERIVATIVES AND PRODRUGS THEREOF IN A SUBJECT HAVING INFLUENZA AND A SEVERE INFLUENZA CONDITION” (Shionogi & Co., Ltd., priority 2019, published 2024)
# At least one structure is not confirmed: it was looked up by name or label, or the drawing left a doubt.
# Legend:
# [1] = test system: influenza type A virus A/Osaka/129/2009 and Streptococcus pneumoniae SR1326; type: in vivo, BALB/c mice; conditions: 2-day delayed treatment; log rank test
# [2] = test system: influenza type A virus A/Osaka/129/2009 and Streptococcus pneumoniae SR1326; set-up: species or system BALB/c mice; conditions: mouse, in vivo
structure (smiles),measurement,setting,value
"O=C1c2c(O)c(=O)ccn2N([C@@H]2c3ccccc3SCc3c2ccc(F)c3F)[C@@H]2COCCN12 [III, baloxavir]",survival time compared with OSP-treated group,[1],significantly prolonged
same,survival time compared with vehicle treatment,[1],significantly prolonged
same,efficacy on survival,[2],not effective
